Measured values taken from PubChem BioAssay AID2685 (National Center for Advancing Translational Sciences (NCATS), 2010).
Some of the results follow. Further columns of the screen follow, without active or inactive calls. The list favours compounds with an active or inconclusive main result. Potencies come from curve fits of mixed quality, noted in brackets.

Test: qHTS Assay for Lipid Storage Modulators in Drosophila S3 Cells;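 for cell number change: cells counted by Cell Tracker Red CMTPX staining in the red channel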
Settings: BODIPY lipid droplet fluorescence, 18-24 h; for cell number change: measured here: cell count max response, cells fed with added oleic acid
How it was run: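 Drosophila S3 cells loaded with oleic acid (400 uM, as added) and compounds at several concentrations; lipid droplets imaged by 488-nm laser-scanning cytometry, 500–530 nm intensity and object ratio to cell channel. Percent activity normalized to 20 uM Triacsin C.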

[1] = measured here: cell number channel AC50, cells fed with added oleic acid
[2] = measured here: lipid fluorescence (Fed channel) AC50, cells fed with added oleic acid

SMILES | AC50 [1] | cell number change | AC50 [2]
CCc1nn2c(NCCOC)cc(C)nc2c1-c1ccc(F)cc1 | 0.366 µM [rising, partial curve, poor fit] | – | –
O=S(=O)(Nc1cc(Cl)ccc1-n1cncn1)c1ccc(F)cc1 | – | 19.5% | –
CC(O)CNCCNCc1c(OCc2ccccc2)ccc2ccccc12 (configuration not stated) | 18.4 µM [rising, single point] | 84.9% | –
CCCN1C(=O)C(NC(=O)c2ccncc2)(C(F)(F)F)C2=C1CC(C)(C)CC2=O (configuration not stated) | – | -2.43% | –
CCC1CCCCN1CCCNC(=O)Cn1c(=O)c2cccn2c2ccccc21 (configuration not stated) | 0.82 µM [rising, single point] | – | –
COc1ccc(C)cc1S(=O)(=O)N(C)CC(=O)NC1CCCCC1 | – | 23.7% | 5.17 µM [rising, full curve]
O=C(N/N=C/c1ccc(F)cc1)c1cccc(NC(=O)c2ccccc2Cl)c1 | – | 17.1% | –
Cc1cc(OCC(=O)NC(C)C)cc(C)c1Br | – | 21.6% | 2.06 µM [rising, single point]
C=CCc1c(C)nc(SCC(=C)C)[nH]c1=O | 0.92 µM [falling, full curve] | -13.9% | –
COc1ccc(CNC(=O)C2CCN(S(=O)(=O)c3cccnc3)CC2)cc1 | – | -16% | 20.6 µM [rising, single point]
O=C(CSc1nnc(-c2ccccn2)n1Cc1ccco1)c1ccc(-c2ccccc2)cc1 | – | -2.62% | –
COc1ccc2c(c1)O[C@@H](c1cccc(C(F)(F)F)c1)[C@H](O)C2=O | 10.3 µM [falling, partial curve] | -30.8% | 18.4 µM [falling, single point]
COc1cc(OC)cc(C(=O)NC(=S)Nc2ccc(Cl)c(C(=O)O)c2)c1 | – | -23.2% | –
COc1ccccc1C(=O)NC(=O)COC(=O)Cc1n[nH]c(=O)c2ccccc12 | – | 17.8% | –
Cc1csc(Sc2ccc(C(=O)OCC(=O)Nc3ccc(OC(F)(F)F)cc3)cc2[N+](=O)[O-])n1 | 0.58 µM [falling, full curve] | 9.35% | –
CC(=O)N(CCCNC(=O)c1ccccc1)C(=O)c1ccccc1 | – | 9.04% | 1.46 µM [falling, partial curve, poor fit]
COc1ccc(C2c3cc(OC)c(OC)cc3CCN2C(=O)c2cccc([N+](=O)[O-])c2)cc1OC (configuration not stated) | 1.84 µM [rising, partial curve] | 18.1% | –
COc1ccc(CNC(=O)COC(=O)CC2CCCC2)cc1 | – | – | 0.58 µM [rising, single point]
CCOC(=O)CCC(=O)N1CCOCCN(C(=O)CCC(=O)OCC)CCOCC1 | – | -11.7% | –
CC(C)(C)C(=O)Nc1nnc(SCC(=O)NC2CCCC2)s1 | – | -13.2% | –
O=C(c1c(O)cc(O)cc1O)C1c2c(cc(O)c3c2O[C@H](c2ccc(O)cc2)[C@@H](O)C3)OC1c1ccc(O)cc1 (some centres not stated) | – | 14.8% | 29.1 µM [rising, single point]

Grouped by structure, the compounds so far containing an NH in an aromatic ring
SMILES | AC50 [1] | cell number change | AC50 [2]
C=CCc1c(C)nc(SCC(=C)C)[nH]c1=O | 0.92 µM [falling, full curve] | -13.9% | –
COc1ccccc1C(=O)NC(=O)COC(=O)Cc1n[nH]c(=O)c2ccccc12 | – | 17.8% | –

Later entries.

SMILES | AC50 [1] | cell number change | AC50 [2]
CCOc1ccc(N2CC(C(=O)Nc3nnc(Cc4ccccc4)s3)CC2=O)cc1 (configuration not stated) | – | -1.9% | 0.231 µM [rising, full curve, poor fit]
O=C(CN(C(=O)CNC(=O)c1ccco1)c1ccccc1F)NC1CCCCC1 | – | -0.417% | –
O=C(COc1ccc(C(=O)O)cc1)Nc1cccc(C(F)(F)F)c1 | – | 2.64% | 29.1 µM [falling, partial curve, poor fit]
CC1CCCC(NC(=O)CSc2nnnn2C)C1C (configuration not stated) | – | 3.25% | 32.6 µM [rising, single point]
Oc1c(N=NC(=S)Nc2ccccc2F)c2ccccc2n1Cc1ccc(Cl)cc1 | 0.0164 µM [falling, full curve, poor fit] | -44.7% | –
Nc1cc(Oc2cccnc2)cc([N+](=O)[O-])c1 | – | 2.65% | 0.184 µM [falling, full curve, poor fit]
Cc1ccc(C(=O)CCC(=O)Nc2ccccc2C)c(C)c1 | – | -16.8% | 32.6 µM [rising, single point]
O=C(Nc1ccccc1)c1ccc(NCCN2C(=O)CCC2=O)c([N+](=O)[O-])c1 | 2.59 µM [falling, full curve] | -42.9% | 2.91 µM [falling, full curve]
COc1ccccc1C(=O)NCCOc1ccc(C(C)(C)C)cc1 | – | -28.3% | 29.1 µM [falling, single point]
Cc1ccc(-n2c(Cc3cccs3)nnc2SCC(=O)OC(C)C)cc1 | – | -2.49% | 0.092 µM [falling, full curve, poor fit]
CC12CCC(C(=O)Nc3ccncc3)(CC1O)C2(C)C (configuration not stated) | – | -29.7% | –
COc1ccc(C(=O)N[C@H](C(=O)Nc2ccc(S(=O)(=O)N3CCOCC3)cc2)C(C)C)cc1 | – | 3.18% | 0.058 µM [falling, full curve, poor fit]
N#Cc1c(-c2ccccc2F)cc(-c2cccnc2)nc1N | 6.51 µM [rising, single point] | -16.7% | 2.59 µM [rising, partial curve, poor fit]
O=C(CCN1C(=O)COc2ccccc21)NCCCN1CCCC1 | – | – | 29.1 µM [rising, single point]
Cc1ccc(S(=O)(=O)NC2OC(=O)C(Cl)=C2Cl)cc1 (configuration not stated) | 25.9 µM [falling, partial curve, poor fit] | -35.1% | –
O=C1C(N2CCOCC2)=C(n2nnc3ccccc32)C(=O)c2ccccc21 | 16.4 µM [falling, single point] | -50% | 20.6 µM [falling, partial curve]
O=C(CCCN1C(=O)/C(=C/c2cccs2)SC1=S)Nc1cc([N+](=O)[O-])ccc1O | – | -3.3% | 8.2 µM [rising, partial curve]
O=C(CSc1ccc(Cl)cc1)Nc1ccc(N2CCN(C(=O)c3ccco3)CC2)cc1 | 6.51 µM [rising, single point] | – | –
CC(C)NC(=O)c1ccc2c(c1)N(CC(=O)N1CCOCC1)C(=O)C(C)(C)O2 | – | 2.82% | 0.00651 µM [rising, full curve, poor fit]
Cc1ccc(S(=O)(=O)N(Cc2cccc(F)c2)C(=O)N2CCN(C)CC2)cc1 | 11.6 µM [falling, partial curve] | -37.3% | 16.4 µM [falling, partial curve]
